Screen size: about 360,000 compounds; about 1,700 (0.47%) were called active. Inconclusive means that the source gave no clear call. Such entries were picked first, then a sample of the others. Calls come from the whole dose curve; as a rule, active = well fitted inhibition curve with a large enough effect; inconclusive = small, poorly fitted or top-dose-only effect; inactive = no such curve, though single readings can be large or run the other way. Potencies of inconclusive entries are doubtful fits and often do not repeat.
Molecular target: Bifunctional 3'-5' exonuclease/ATP-dependent helicase WRN (Homo sapiens) (UniProt Q14191)
Experiment: qHTS for Inhibitors of WRN Helicase; note: nearly all actives have a fitted effect of over 55% in size
Settings: WRN helicase unwinding, fluorescent forked duplex, kinetic; activity change, negative = inhibition: at 114 µM (top of the series) unless noted
Outline: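 Enzyme (20 nM final) and test compound sit together 15 min at room temperature before substrate addition. Substrate is a single-forked duplex oligonucleotide (100 nM) labelled with fluorophore and quencher, with 2 mM ATP; helicase unwinding raises red fluorescence, read kinetically.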
% is set by controls: 0 for no effect and ±100 for the full control effect; potency is the fitted concentration of half-maximal effect.

Sequences of proteins named here, by UniProt entry; tags and fusion partners are left off.
UniProt Q14191, whole entry, looked up: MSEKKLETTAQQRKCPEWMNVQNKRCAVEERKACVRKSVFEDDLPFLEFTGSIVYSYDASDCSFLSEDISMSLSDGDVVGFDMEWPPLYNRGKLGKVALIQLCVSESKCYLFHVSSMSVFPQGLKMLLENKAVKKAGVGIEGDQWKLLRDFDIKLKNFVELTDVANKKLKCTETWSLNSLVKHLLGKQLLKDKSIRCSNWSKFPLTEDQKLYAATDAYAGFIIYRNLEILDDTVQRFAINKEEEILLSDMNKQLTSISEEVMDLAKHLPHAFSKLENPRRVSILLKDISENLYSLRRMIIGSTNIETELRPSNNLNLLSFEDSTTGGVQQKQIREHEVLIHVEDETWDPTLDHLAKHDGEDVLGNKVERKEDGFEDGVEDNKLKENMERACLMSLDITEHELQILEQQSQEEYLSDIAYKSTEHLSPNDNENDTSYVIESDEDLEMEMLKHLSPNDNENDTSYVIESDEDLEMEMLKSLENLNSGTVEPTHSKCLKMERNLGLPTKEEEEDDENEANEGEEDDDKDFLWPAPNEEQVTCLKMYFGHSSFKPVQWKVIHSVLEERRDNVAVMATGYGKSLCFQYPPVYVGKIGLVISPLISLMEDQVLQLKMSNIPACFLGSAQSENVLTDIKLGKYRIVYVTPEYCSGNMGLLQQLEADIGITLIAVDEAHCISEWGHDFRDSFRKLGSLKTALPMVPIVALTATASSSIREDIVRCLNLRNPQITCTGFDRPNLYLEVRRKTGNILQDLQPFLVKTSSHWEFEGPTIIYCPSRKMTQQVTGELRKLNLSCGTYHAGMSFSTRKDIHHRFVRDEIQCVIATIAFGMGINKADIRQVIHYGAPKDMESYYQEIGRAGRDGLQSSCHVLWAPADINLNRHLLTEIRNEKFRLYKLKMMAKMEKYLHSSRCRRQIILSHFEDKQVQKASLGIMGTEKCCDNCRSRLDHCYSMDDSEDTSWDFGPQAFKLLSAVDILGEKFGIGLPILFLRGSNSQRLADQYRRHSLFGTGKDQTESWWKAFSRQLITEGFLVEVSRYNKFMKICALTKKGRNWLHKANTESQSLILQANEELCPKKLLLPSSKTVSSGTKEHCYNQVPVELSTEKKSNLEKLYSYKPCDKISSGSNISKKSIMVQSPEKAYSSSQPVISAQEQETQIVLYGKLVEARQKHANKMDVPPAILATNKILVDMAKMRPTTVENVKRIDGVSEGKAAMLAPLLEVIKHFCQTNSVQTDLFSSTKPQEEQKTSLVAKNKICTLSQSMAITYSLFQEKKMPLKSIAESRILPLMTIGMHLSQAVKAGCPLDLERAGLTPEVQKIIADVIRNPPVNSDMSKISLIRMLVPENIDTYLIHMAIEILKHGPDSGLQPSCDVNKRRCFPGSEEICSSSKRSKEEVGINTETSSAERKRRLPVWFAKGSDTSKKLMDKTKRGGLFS

Q: For COc1ccc2[nH]c3c(=O)n(CCCCC(=O)NCCN4CCCC4)c(=S)[nH]c3c2c1, which Potency is on record?
A: inconclusive: 56.2 µM [inhibitor, partial curve]

Q: With COc1ccc(OC)c(NC(=O)c2nnn(CC(=O)Nc3ccc4c(c3)OCO4)c2N)c1 as the compound, how does the “activity change, negative = inhibition” value read?
A: inactive: -19.8%

Q: O=C1NN(c2ccccc2)C(=O)/C1=C/c1ccc(-c2cccc(C(=O)O)c2)o1 was tested. Which Potency did it give?
A: inconclusive: 50.1 µM [inhibitor, partial curve]

Q: With CC(=O)/C(N=Nc1cc2c(cc1[N+](=O)[O-])OCCO2)=C(\C)O as the compound, how does the Potency read?
A: inconclusive: 89.1 µM [inhibitor, single point]

Q: How did the Potency turn out when CCCCc1nc(NCCNC(=O)c2ccco2)c(C#N)c2c1CSC(C)(C)C2 was run?
A: inconclusive: 44.7 µM [inhibitor, partial curve]

Q: How did the Potency turn out when Cc1ccccc1NC(=O)CN1C(=O)S/C(=C\c2cccn2-c2cccc(C(=O)O)c2)C1=O was run?
A: inconclusive: 50.1 µM [inhibitor, partial curve]

Q: For CCCCNc1ccc2c3c(cccc13)C(=O)N(CCCC)C2=O, which Potency is on record?
A: inconclusive: 89.1 µM [inhibitor, partial curve, poor fit]

Q: CCCc1c(C)[nH]c2ccc(C(=O)O)cc2c1=S was tested. Which Potency did it give?
A: active: 25.1 µM

Q: With COc1ccc(N=Nc2ccc(N)nc2N)cc1 as the compound, how does the “activity change, negative = inhibition” value read?
A: inactive: -12%

Q: How did the Potency turn out when COc1ccc(-c2csc(NC(=O)c3ccccc3NS(=O)(=O)c3ccc(F)c(F)c3)n2)cc1 was run?
A: inconclusive: 56.2 µM [inhibitor, partial curve]

Q: CCc1nc(SCC(=O)Nc2ccc(N(CC)CC)cc2)n[nH]1 was tested. Which “activity change, negative = inhibition” value did it give?
A: inactive: -6.33%

Q: With CCOc1ccc(Nc2nc(Cc3nnc(SCC(=O)O)o3)cs2)cc1 as the compound, how does the “activity change, negative = inhibition” value read?
A: inactive: -27.8% [at 57.1 µM]

Q: With O=C(N/N=C/c1ccc(O)c(O)c1)c1ccc(CSc2cccc3cccnc23)cc1 as the compound, how does the Potency read?
A: inconclusive: 12.6 µM [inhibitor, full curve]

Q: Which Potency does the source give for Cc1ccc(NNC(=O)Nc2ccc(Cl)cc2)nn1 here?
A: inconclusive: 39.8 µM [inhibitor, partial curve]

Q: For C=CCOc1ccc(/C=C2/C(=O)ON=C2C)cc1OCC, which Potency is on record?
A: inconclusive: 56.2 µM [inhibitor, partial curve]

Q: For N#CC1=C(N)SC(N)=C(C#N)C1c1ccnc2ccccc12, which Potency is on record?
A: inconclusive: 56.2 µM [inhibitor, partial curve, poor fit]

Q: Which “activity change, negative = inhibition” value does the source give for O=S(=O)(CCN(CCS(=O)(=O)C(F)(F)F)CC1CCCO1)C(F)(F)F (centres undefined) here?
A: inactive: -19.9%

Q: O=C(NCc1ccccc1)c1ccc(OC2CSC2)cc1 was tested. Which “activity change, negative = inhibition” value did it give?
A: inactive: 3.76%

Q: For COc1cc(/C=N/Nc2nc(C)nc3c2cnn3-c2ccccc2)ccc1O, which Potency is on record?
A: inconclusive: 89.1 µM [inhibitor, partial curve]

From PubChem BioAssay AID651768 (National Center for Advancing Translational Sciences (NCATS), 2012)
